Measurements reported in PubChem BioAssay AID1224826 (NIAID, 2016)
The whole screen tested about 17,000 reagents; below is an unselected part. About 1,110 of all reagents (6.6%) were called active. 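Active means lowered or raised reporter signal; replicate intensities are raw and not normalised per plate.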 Not all columns of the deposit are shown.

- Aim: 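Genes that change LPS-induced Tnf promoter activity in mouse macrophages when knocked down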 (primary screen)
- Cell system: RAW264.7 G9 macrophages from mouse bearing reporters for p65 (GFP) and the Tnf promoter (mCherry)
- Knock-down reagent: siRNA pool against mouse genes, 100 nM
- Timing: 16 h of LPS stimulation, after 2 days of siRNA transfection
- Treatment: bacterial lipopolysaccharide (Salmonella minnesota R595), 10 ng/ml
- Read-out: 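Nuclear mCherry signal of the Tnf promoter reporter measured by imaging after background removal, scaled to each plate median and turned into robust z-scores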
- Reading the numbers: Tnf reporter robust z-score: higher = stronger Tnf promoter reporter signal after LPS
- Call rule: 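a well counts as active at a score of -1.3 or below (Tlr4 knock-down control median) or above 3 (raised signal); controls and wells holding fewer than 50 cells are excluded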
- Calls: active = Tnf reporter clearly lowered or raised; inactive = no clear change in Tnf reporter

For Krt90 the deposit lists fewer than 50 cells in well fewer than 50 cells per well; well left out of calls; inactive. With knock-down of Exosc9, the screen gave Tnf reporter robust z-score 0; fewer than 50 cells in well enough cells in well; inactive. Mdga1 gave Tnf reporter robust z-score 1.43; fewer than 50 cells in well enough cells in well; inactive. Depletion of Sdc2 gave: Tnf reporter robust z-score -0.34; fewer than 50 cells in well enough cells in well; inactive. Rhog showed Tnf reporter robust z-score -0.39; fewer than 50 cells in well enough cells in well; inactive. Against Or51h1, the entry reads fewer than 50 cells in well fewer than 50 cells per well; well left out of calls; inactive.

Brd8 scored Tnf reporter robust z-score -1.38; fewer than 50 cells in well enough cells in well; active. After knock-down of Cd8a, the record shows Tnf reporter robust z-score 2.98; fewer than 50 cells in well enough cells in well; inactive. Against Cyp1b1, the entry reads Tnf reporter robust z-score -0.06; fewer than 50 cells in well enough cells in well; inactive. Against Dync1li2, the values are Tnf reporter robust z-score -0.81; fewer than 50 cells in well enough cells in well; inactive. Silencing of A930012O16Rik resulted in: Tnf reporter robust z-score 2.02; fewer than 50 cells in well enough cells in well; inactive. Nek11 showed Tnf reporter robust z-score -0.59; fewer than 50 cells in well enough cells in well; inactive.

2900005J15Rik scored Tnf reporter robust z-score 3.25; fewer than 50 cells in well enough cells in well; active. Against Or5w11, the entry reads Tnf reporter robust z-score -0.8; fewer than 50 cells in well enough cells in well; inactive. After knock-down of Scrt1, the screen gave Tnf reporter robust z-score -0.25; fewer than 50 cells in well enough cells in well; inactive. With knock-down of Rdh9, the screen gave Tnf reporter robust z-score 0.05; fewer than 50 cells in well enough cells in well; inactive. Depletion of Cers1 gave: Tnf reporter robust z-score -0.7; fewer than 50 cells in well enough cells in well; inactive. Against Odc1, the values are Tnf reporter robust z-score -0.46; fewer than 50 cells in well enough cells in well; inactive.

Against Rrp7a the deposit lists fewer than 50 cells in well fewer than 50 cells per well; well left out of calls; inactive. Sec14l2 showed Tnf reporter robust z-score 0.49; fewer than 50 cells in well enough cells in well; inactive. With knock-down of Gne, the record shows Tnf reporter robust z-score 0.15; fewer than 50 cells in well enough cells in well; inactive.
